Laboratory results from PubChem BioAssay AID248 (DTP/NCI, 2004).
The list shows only some results of the screen, not a fair sample: it covers a few groups of compounds. Not every dose and run of a compound is shown. T/C is the treated group as % of the vehicle group. Some doses have a count of surviving animals in place of a T/C: the source holds a T/C of zero for them, seemingly a mark for toxic or unscored doses. Counts of survivors are from the toxicity check (mostly the fifth day) where no day follows; animals may have died later. Schedule codes are those of the source, read here as Q, the interval in days (D) or hours (H), X, the number of doses. Where survival is the endpoint, this PubChem deposit counts one and a half times the control or more as active, and values a quarter to a half above the control carry no call in these data; other NCI protocols may use other cut-offs. Some entries were tested several times; their values stand side by side, smallest first. Some T/C values are followed by the survivors on the day toxicity was checked, most often the fifth; without a count or a note in brackets, all were alive then.

System: L1210 leukemia ip in BDF1 mice, survival T/C
Assay: NCI In Vivo Anticancer Drug Screen. Data for tumor model L1210 Leukemia (intraperitoneal) in B6D2F1 (BDF1) mice
Details: higher T/C = longer survival

SMILES: COc1ccc(O)c2c(=O)c3c(OC)cc4c(c3oc12)[C@@H]1C=CO[C@@H]1O4
- T/C (T/C endpoint: mean survival time, dose: 2.0 mg/kg/injection, schedule: Q03HX008 (ip), vehicle: Klucel (hydroxypropylcellulose) (HPC)): 116 % of control
- T/C (T/C endpoint: mean survival time, dose: 2.66 mg/kg/injection, schedule: Q01DX009 (ip), vehicle: saline with Tween-80): 116 % of control
- T/C (T/C endpoint: mean survival time, dose: 4.0 mg/kg/injection, schedule: Q01DX009 (ip), vehicle: saline with Tween-80): 121 % of control
- T/C (T/C endpoint: mean survival time, dose: 4.0 mg/kg/injection, schedule: Q03HX008 (ip), vehicle: Klucel (hydroxypropylcellulose) (HPC)): 135 % of control
- T/C (T/C endpoint: mean survival time, dose: 4.0 mg/kg/injection, schedule: Q03HX016 (ip), vehicle: Klucel (hydroxypropylcellulose) (HPC)): 125 % of control
- T/C (T/C endpoint: mean survival time, dose: 6.0 mg/kg/injection, schedule: Q01DX009 (ip), vehicle: saline with Tween-80): 121 % of control
- T/C (T/C endpoint: mean survival time, dose: 8.0 mg/kg/injection, schedule: Q03HX008 (ip), vehicle: Klucel (hydroxypropylcellulose) (HPC)): 142 % of control
- T/C (T/C endpoint: mean survival time, dose: 8.0 mg/kg/injection, schedule: Q03HX016 (ip), vehicle: Klucel (hydroxypropylcellulose) (HPC)): 196 % of control
- T/C (T/C endpoint: mean survival time, dose: 8.9 mg/kg/injection, schedule: Q01DX009 (ip), vehicle: saline with Tween-80): 126 % of control
- T/C (T/C endpoint: mean survival time, dose: 9.0 mg/kg/injection, schedule: Q01DX009 (ip), vehicle: saline with Tween-80): 133 % of control
- T/C (T/C endpoint: mean survival time, dose: 10.0 mg/kg/injection, schedule: Q01DX009 (ip), vehicle: Klucel (hydroxypropylcellulose) (HPC)): 108 % of control
- T/C (T/C endpoint: mean survival time, dose: 13.3 mg/kg/injection, schedule: Q01DX009 (ip), vehicle: saline with Tween-80): 132 % of control
- T/C (T/C endpoint: mean survival time, dose: 14.0 mg/kg/injection, schedule: Q01DX009 (ip), vehicle: Klucel (hydroxypropylcellulose) (HPC)): 138 % of control
- T/C (T/C endpoint: mean survival time, dose: 16.0 mg/kg/injection, schedule: Q03HX008 (ip), vehicle: Klucel (hydroxypropylcellulose) (HPC)): 155 % of control
- T/C (T/C endpoint: mean survival time, dose: 16.0 mg/kg/injection, schedule: Q03HX016 (ip), vehicle: Klucel (hydroxypropylcellulose) (HPC)): 174 % of control
- T/C (T/C endpoint: mean survival time, dose: 16.0 mg/kg/injection, schedule: Q04DX003 (ip), vehicle: Klucel (hydroxypropylcellulose) (HPC)): 141 % of control
- T/C (T/C endpoint: mean survival time, dose: 20.0 mg/kg/injection, schedule: Q01DX009 (ip), vehicle: Klucel (hydroxypropylcellulose) (HPC)): 150 % of control
- T/C (T/C endpoint: mean survival time, dose: 20.0 mg/kg/injection, schedule: Q01DX009 (ip), vehicle: saline with Tween-80): 148 % of control
- T/C (T/C endpoint: mean survival time, dose: 22.0 mg/kg/injection, schedule: Q01DX009 (ip), vehicle: saline with Tween-80): 153 % of control
- T/C (T/C endpoint: mean survival time, dose: 30.0 mg/kg/injection, schedule: Q01DX009 (ip), vehicle: Klucel (hydroxypropylcellulose) (HPC)): 146 % of control
- T/C (T/C endpoint: mean survival time, dose: 30.0 mg/kg/injection, schedule: Q01DX009 (ip), vehicle: saline with Tween-80): 152 % of control
- T/C (T/C endpoint: mean survival time, dose: 32.0 mg/kg/injection, schedule: Q01DX001 (ip), vehicle: Klucel (hydroxypropylcellulose) (HPC)): 125 % of control
- T/C (T/C endpoint: mean survival time, dose: 32.0 mg/kg/injection, schedule: Q01DX009 (oral), vehicle: Klucel (hydroxypropylcellulose) (HPC)): 118 % of control
- survivor count (T/C endpoint: mean survival time, dose: 32.0 mg/kg/injection, schedule: Q03HX008 (ip), vehicle: Klucel (hydroxypropylcellulose) (HPC)): 3 of 6
- survivor count (T/C endpoint: mean survival time, dose: 32.0 mg/kg/injection, schedule: Q03HX016 (ip), vehicle: Klucel (hydroxypropylcellulose) (HPC)): 1 of 6
- T/C (T/C endpoint: mean survival time, dose: 32.0 mg/kg/injection, schedule: Q04DX003 (ip), vehicle: Klucel (hydroxypropylcellulose) (HPC)): 166 % of control
- T/C (T/C endpoint: mean survival time, dose: 32.0 mg/kg/injection, schedule: Q08DX002 (ip), vehicle: Klucel (hydroxypropylcellulose) (HPC)): 138 % of control
- T/C (T/C endpoint: mean survival time, dose: 33.0 mg/kg/injection, schedule: Q01DX009 (ip), vehicle: saline with Tween-80): 157 % of control
- T/C (T/C endpoint: mean survival time, dose: 44.0 mg/kg/injection, schedule: Q01DX009 (ip), vehicle: Klucel (hydroxypropylcellulose) (HPC)): 166 % of control
- T/C (T/C endpoint: mean survival time, dose: 50.0 mg/kg/injection, schedule: Q01DX009 (ip), vehicle: saline with Tween-80): 159 % of control
- T/C (T/C endpoint: mean survival time, dose: 64.0 mg/kg/injection, schedule: Q01DX001 (ip), vehicle: Klucel (hydroxypropylcellulose) (HPC)): 146 % of control
- T/C (T/C endpoint: mean survival time, dose: 64.0 mg/kg/injection, schedule: Q01DX009 (oral), vehicle: Klucel (hydroxypropylcellulose) (HPC)): 128 % of control [5 of 6 alive]
- survivor count (T/C endpoint: mean survival time, dose: 64.0 mg/kg/injection, schedule: Q03HX016 (ip), vehicle: Klucel (hydroxypropylcellulose) (HPC)): 0 of 6
- T/C (T/C endpoint: mean survival time, dose: 64.0 mg/kg/injection, schedule: Q04DX003 (ip), vehicle: Klucel (hydroxypropylcellulose) (HPC)): 180 % of control
- T/C (T/C endpoint: mean survival time, dose: 64.0 mg/kg/injection, schedule: Q08DX002 (ip), vehicle: Klucel (hydroxypropylcellulose) (HPC)): 164 % of control
- T/C (T/C endpoint: mean survival time, dose: 66.0 mg/kg/injection, schedule: Q01DX009 (ip), vehicle: Klucel (hydroxypropylcellulose) (HPC)): 102 % of control
- T/C (T/C endpoint: mean survival time, dose: 75.0 mg/kg/injection, schedule: Q01DX009 (ip), vehicle: saline with Tween-80): 168 % of control
- T/C (T/C endpoint: mean survival time, dose: 100.0 mg/kg/injection, schedule: Q01DX009 (ip), vehicle: Klucel (hydroxypropylcellulose) (HPC)): 88 % of control [5 of 6 alive]
- T/C (T/C endpoint: mean survival time, dose: 128.0 mg/kg/injection, schedule: Q01DX001 (ip), vehicle: Klucel (hydroxypropylcellulose) (HPC)): 158 % of control
- T/C (T/C endpoint: mean survival time, dose: 128.0 mg/kg/injection, schedule: Q01DX009 (oral), vehicle: Klucel (hydroxypropylcellulose) (HPC)): 124 % of control [5 of 6 alive]
- T/C (T/C endpoint: mean survival time, dose: 128.0 mg/kg/injection, schedule: Q04DX003 (ip), vehicle: Klucel (hydroxypropylcellulose) (HPC)): 166 % of control
- T/C (T/C endpoint: mean survival time, dose: 128.0 mg/kg/injection, schedule: Q08DX002 (ip), vehicle: Klucel (hydroxypropylcellulose) (HPC)): 177 % of control
- T/C (T/C endpoint: mean survival time, dose: 256.0 mg/kg/injection, schedule: Q01DX001 (ip), vehicle: Klucel (hydroxypropylcellulose) (HPC)): 160 % of control [5 of 6 alive]
- T/C (T/C endpoint: mean survival time, dose: 256.0 mg/kg/injection, schedule: Q01DX009 (oral), vehicle: Klucel (hydroxypropylcellulose) (HPC)): 131 % of control
- T/C (T/C endpoint: mean survival time, dose: 256.0 mg/kg/injection, schedule: Q04DX003 (ip), vehicle: Klucel (hydroxypropylcellulose) (HPC)): 103 % of control
- T/C (T/C endpoint: mean survival time, dose: 256.0 mg/kg/injection, schedule: Q08DX002 (ip), vehicle: Klucel (hydroxypropylcellulose) (HPC)): 122 % of control [4 of 6 alive]
- T/C (T/C endpoint: mean survival time, dose: 512.0 mg/kg/injection, schedule: Q01DX001 (ip), vehicle: Klucel (hydroxypropylcellulose) (HPC)): 172 % of control [4 of 6 alive]
- survivor count (T/C endpoint: mean survival time, dose: 512.0 mg/kg/injection, schedule: Q01DX009 (oral), vehicle: Klucel (hydroxypropylcellulose) (HPC)): 0 of 6
- survivor count (T/C endpoint: mean survival time, dose: 512.0 mg/kg/injection, schedule: Q08DX002 (ip), vehicle: Klucel (hydroxypropylcellulose) (HPC)): 2 of 6
- T/C (T/C endpoint: median survival time, dose: 2.0 mg/kg/injection, schedule: Q01DX009 (ip), vehicle: saline): 110 and 114 % of control
- T/C (T/C endpoint: median survival time, dose: 2.0 mg/kg/injection, schedule: Q03HX024 (ip), vehicle: saline): 125 % of control
- T/C (T/C endpoint: median survival time, dose: 4.0 mg/kg/injection, schedule: Q01DX009 (ip), vehicle: saline, evaluated on day 30): 121 and 131 % of control
- T/C (T/C endpoint: median survival time, dose: 4.0 mg/kg/injection, schedule: Q01DX009 (ip), vehicle: saline, evaluated on day 60): 122 % of control
- T/C (T/C endpoint: median survival time, dose: 4.0 mg/kg/injection, schedule: Q01DX009 (sc), vehicle: saline): 98 % of control [9 of 10 alive]
- T/C (T/C endpoint: median survival time, dose: 4.0 mg/kg/injection, schedule: Q03HX008 (ip), vehicle: saline): 114 % of control
